The test deals with T1, M. catarrhalis transferrin binding protein B with C-terminal flag-tag (Mcat TbpB-flag) (Moraxella catarrhalis) (UniProt P0DTW7).
T1 sequence (chain, lipidated): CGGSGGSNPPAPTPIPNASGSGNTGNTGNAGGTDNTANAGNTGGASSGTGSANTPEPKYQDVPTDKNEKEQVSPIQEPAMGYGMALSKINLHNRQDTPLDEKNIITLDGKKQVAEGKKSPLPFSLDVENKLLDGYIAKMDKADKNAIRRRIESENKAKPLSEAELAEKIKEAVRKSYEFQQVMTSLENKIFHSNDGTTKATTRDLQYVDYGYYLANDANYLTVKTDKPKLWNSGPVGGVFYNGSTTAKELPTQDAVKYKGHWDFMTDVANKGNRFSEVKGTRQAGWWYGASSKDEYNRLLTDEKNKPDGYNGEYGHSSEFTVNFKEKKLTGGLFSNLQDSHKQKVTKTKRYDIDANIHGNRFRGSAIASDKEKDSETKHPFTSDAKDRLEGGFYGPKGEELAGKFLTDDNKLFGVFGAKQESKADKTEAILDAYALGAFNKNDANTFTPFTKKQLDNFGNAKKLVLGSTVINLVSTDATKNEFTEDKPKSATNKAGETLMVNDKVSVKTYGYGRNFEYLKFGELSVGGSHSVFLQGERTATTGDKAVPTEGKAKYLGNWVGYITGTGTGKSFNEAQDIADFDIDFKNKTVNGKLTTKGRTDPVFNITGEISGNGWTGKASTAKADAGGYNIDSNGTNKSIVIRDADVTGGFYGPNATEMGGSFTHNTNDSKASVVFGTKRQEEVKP
Description: affinity purification with mass spectrometry.

No constants are given. Whether binding was seen depends on the method and setting. Binding seen in cells or lysates may run through a third protein. These calls come from enrichment with a bait or labelling near it, and not all partners need be listed. Tags and fused reporters may be left off the sequences shown.

B1: His-tagged E. coli LolA, purified (protein, UniProt P61316 22-203)
chain: DAASDLKSRLDKVSSFHASFTQKVTDGSGAAVQEGQGDLWVKRPNLFNWHMTQPDESILVSDGKTLWFYNPFVEQATATWLKDATGNTPFMLIARNQSSDWQQYNIKQNGDDFVLTPKASNGNLKQFTINVGRDGTIHQFSAVEQDDQRSSYQLKSQQNGAVDAAKFTFTPPQGVTVDDQRK
Turning to B1, the binding result is on record as “binds”.

B2: Periplasmic chaperone Skp of E. coli, endogenous (protein, UniProt P0AEU7 21-161)
chain: ADKIAIVNMGSLFQQVAQKTGVSNTLENEFKGRASELQRMETDLQAKMKKLQSMKAGSDRTKLEKDVMAQRQTFAQKAQAFEQDRARRSNEERGKLVTRIQTAVKSVANSQDIDLVVDANAVAYNSSDVKDITADVLKQVK
On to B2, for which the binding result is listed as “binds”.

Source of the values: article doi:10.1101/2021.08.22.457263.
